The list shows a part of the results, in another mix than the full data. At the low end of the ranking the order means little.
Tests used:
Assay in all cases: DAPPL (digital affinity profiling via proximity ligation, sequencing)
Settings in all cases: 10 mM Tris-HCl pH 7.5, 50 mM NaCl, 1 mM DTT, 4% glycerol, room temperature, 30 min; GST-TFs on glutathione beads, 16-mer random dsDNA library, 0.1% …; high values mean tight binding; double strand, one strand shown; scale: fold enrichment (6-mer frequency, TF over GST control)
FLI1 = molecular target: T1, FLI1 (UniProt Q01543)
T1 sequence: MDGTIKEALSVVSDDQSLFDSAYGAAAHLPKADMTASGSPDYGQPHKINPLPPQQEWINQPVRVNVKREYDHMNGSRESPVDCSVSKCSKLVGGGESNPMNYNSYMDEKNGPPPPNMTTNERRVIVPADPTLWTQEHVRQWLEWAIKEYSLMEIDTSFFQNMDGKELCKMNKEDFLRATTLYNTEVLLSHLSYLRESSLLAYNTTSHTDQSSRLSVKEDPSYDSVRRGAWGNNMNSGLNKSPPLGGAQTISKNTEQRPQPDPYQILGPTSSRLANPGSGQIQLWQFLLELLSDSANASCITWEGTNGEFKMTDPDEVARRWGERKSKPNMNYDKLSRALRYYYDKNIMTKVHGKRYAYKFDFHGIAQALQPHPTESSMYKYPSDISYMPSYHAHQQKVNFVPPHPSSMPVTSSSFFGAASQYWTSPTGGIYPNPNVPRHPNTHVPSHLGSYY

By UniProt entry, the sequences of proteins in these tests, tags left out. Where a name states a change or a piece, a line headed by the entry shows the natural chain unless it says otherwise.
UniProt Q01892: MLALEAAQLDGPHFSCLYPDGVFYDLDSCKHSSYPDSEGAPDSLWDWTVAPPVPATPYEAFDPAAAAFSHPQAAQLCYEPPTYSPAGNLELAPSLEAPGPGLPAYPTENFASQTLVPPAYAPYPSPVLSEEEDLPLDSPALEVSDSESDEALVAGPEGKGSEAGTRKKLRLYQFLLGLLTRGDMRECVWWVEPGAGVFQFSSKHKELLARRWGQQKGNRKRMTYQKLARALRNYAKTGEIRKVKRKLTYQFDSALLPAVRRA
UniProt Q99607: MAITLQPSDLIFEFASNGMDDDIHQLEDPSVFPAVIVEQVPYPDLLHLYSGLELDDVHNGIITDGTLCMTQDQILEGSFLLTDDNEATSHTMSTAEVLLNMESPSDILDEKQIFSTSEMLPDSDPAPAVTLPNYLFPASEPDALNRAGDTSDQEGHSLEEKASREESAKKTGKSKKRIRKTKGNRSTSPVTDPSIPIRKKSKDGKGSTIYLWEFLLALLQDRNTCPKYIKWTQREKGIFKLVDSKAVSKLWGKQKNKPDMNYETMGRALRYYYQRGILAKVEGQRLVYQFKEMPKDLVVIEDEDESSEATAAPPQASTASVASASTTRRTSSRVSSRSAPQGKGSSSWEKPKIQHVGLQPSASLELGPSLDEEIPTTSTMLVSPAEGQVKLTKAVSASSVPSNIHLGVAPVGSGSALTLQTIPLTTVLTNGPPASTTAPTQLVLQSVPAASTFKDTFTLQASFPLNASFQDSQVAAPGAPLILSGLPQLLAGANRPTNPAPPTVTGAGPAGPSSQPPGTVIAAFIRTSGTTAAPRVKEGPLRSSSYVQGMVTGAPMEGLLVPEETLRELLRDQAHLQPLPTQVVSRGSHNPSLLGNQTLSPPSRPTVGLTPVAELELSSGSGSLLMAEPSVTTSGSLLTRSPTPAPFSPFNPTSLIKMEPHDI

EHF = molecular target: T2, EHF (UniProt Q9NZC4)
T2 sequence: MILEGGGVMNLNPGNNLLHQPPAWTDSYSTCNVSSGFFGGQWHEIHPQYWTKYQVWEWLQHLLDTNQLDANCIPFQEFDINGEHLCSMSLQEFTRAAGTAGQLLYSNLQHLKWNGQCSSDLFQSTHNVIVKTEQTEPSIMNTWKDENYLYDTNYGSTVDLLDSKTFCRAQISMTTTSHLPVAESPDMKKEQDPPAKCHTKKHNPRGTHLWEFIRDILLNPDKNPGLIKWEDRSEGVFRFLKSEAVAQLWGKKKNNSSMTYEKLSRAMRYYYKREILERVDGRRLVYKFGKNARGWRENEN

SPIB = SPIB (UniProt Q01892)
ELF4 = ELF4 (UniProt Q99607)
ETV2 = molecular target: T3, ETV2 (UniProt O00321)
T3 sequence: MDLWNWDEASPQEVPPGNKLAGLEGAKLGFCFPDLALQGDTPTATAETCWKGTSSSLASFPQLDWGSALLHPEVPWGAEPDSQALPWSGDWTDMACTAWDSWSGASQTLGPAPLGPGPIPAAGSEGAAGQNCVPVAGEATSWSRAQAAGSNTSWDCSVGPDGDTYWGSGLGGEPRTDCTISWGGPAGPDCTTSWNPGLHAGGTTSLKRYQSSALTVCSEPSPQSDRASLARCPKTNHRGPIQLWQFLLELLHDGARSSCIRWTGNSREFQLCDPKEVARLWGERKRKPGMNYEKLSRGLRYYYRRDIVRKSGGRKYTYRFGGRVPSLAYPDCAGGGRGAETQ

ETV3L = molecular target: T4, ETV3L (UniProt Q6ZN32)
T4 sequence: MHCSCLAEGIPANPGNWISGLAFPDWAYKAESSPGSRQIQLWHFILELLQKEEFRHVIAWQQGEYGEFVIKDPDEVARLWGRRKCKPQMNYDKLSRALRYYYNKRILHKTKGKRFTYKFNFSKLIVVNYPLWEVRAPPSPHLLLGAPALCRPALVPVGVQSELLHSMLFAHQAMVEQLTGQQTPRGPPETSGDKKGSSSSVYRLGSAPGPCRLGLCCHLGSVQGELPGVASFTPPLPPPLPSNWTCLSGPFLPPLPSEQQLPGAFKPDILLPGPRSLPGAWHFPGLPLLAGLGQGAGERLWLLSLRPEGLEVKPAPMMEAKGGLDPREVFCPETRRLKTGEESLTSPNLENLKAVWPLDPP

Sequence | binding signal (FLI1) | binding signal (EHF) | binding signal (SPIB) | binding signal (ELF4) | binding signal (ETV2) | binding signal (ETV3L)
CTGTAG | 0.935 | 0.944 | 0.883 | 0.972 | 0.985 | 0.977
CGGCAA | 0.911 | 0.927 | 0.997 | 0.952 | 0.827 | 0.928
GAATTA | 1.09 |  |  | 0.998 | 1.02 | 0.973
ATTGTC | 1.17 |  |  | 1.08 | 1.14 | 1.14
GTACCA | 0.962 | 0.98 |  | 0.999 | 0.94 | 0.991
CATGCC | 1.18 |  |  | 1.16 | 1.08 | 
AGCGAT | 0.994 |  |  | 0.99 | 0.936 | 
GGCTAA | 0.989 |  | 0.998 | 0.981 | 0.974 | 0.939
CGAGGT | 0.97 | 0.842 | 0.933 | 0.897 | 0.99 | 0.864
GTCTAT | 0.965 |  |  | 1.11 | 1 | 
TGGGAA | 0.944 |  |  | 0.947 | 1.02 | 0.923
AGCGTC | 0.897 | 0.935 |  | 0.974 | 0.984 | 0.972
TTTACC | 1.28 |  |  | 1.24 | 1.3 | 
CAACTC | 1.37 |  |  | 1.27 | 1.3 | 
TTGGCG | 1.07 | 0.962 |  | 0.947 | 0.906 | 0.992
GTCCGG | 0.922 | 0.935 | 0.962 | 0.79 | 0.811 | 0.942
GTTCCT | 1.73 |  |  | 1.6 | 1.65 | 
CATTAT | 1.19 |  |  | 1.21 | 1.05 | 
AGCTCA | 1.07 |  |  | 1.16 |  | 1.08
GGTGGT | 1.05 | 0.9 |  | 0.986 | 0.987 | 
TGGCGA | 0.973 |  | 0.959 | 0.936 | 0.806 | 0.989
GAAACC | 0.866 | 1.04 | 0.957 | 0.967 |  | 0.894
GACTTA | 0.989 |  | 0.969 | 0.961 | 0.896 | 0.903

Sequence | binding signal (FLI1) | binding signal (EHF) | binding signal (SPIB) | binding signal (ELF4) | binding signal (ETV2) | binding signal (ETV3L)
AGTACC | 0.903 | 0.975 | 0.965 | 0.963 |  | 0.982
TGACCG | 1.62 | 1.53 |  | 1.47 | 1.52 | 
ACACGG | 0.998 | 1.05 | 1.1 | 1.05 | 0.921 | 
CCCCTA | 0.985 |  | 1.08 | 1.2 | 1.06 | 
TTTTAT | 1.4 | 1.44 |  | 1.4 |  | 1.39
CAGTTC | 0.909 | 1.02 |  | 0.973 | 0.848 | 
CTAGCA | 1.28 |  |  | 1.3 |  | 1.28
ACGGTT | 1.07 |  |  | 0.981 |  | 0.928
AACGGA | 1.05 | 1.13 |  | 0.994 | 1.02 | 
GCTAAA | 1.06 | 1.06 |  | 1.06 | 1.12 | 
GCTAGA | 0.919 | 0.899 | 0.912 | 0.954 | 0.951 | 
TGATGT | 1.31 |  | 1.41 | 1.32 | 1.26 | 
GGCACT | 1.24 |  |  | 1.26 |  | 1.27
ACACAT | 1.34 | 1.35 |  | 1.23 |  | 1.23
CCTCAG | 1.17 |  | 1.35 | 1.3 | 1.37 | 
AGCGGC | 0.99 | 0.941 | 0.878 | 0.953 | 0.984 | 
CCCAAG | 1.09 | 0.983 | 0.924 | 1.03 | 0.971 | 
TGGGAT | 1.12 |  |  | 1.2 |  | 1.15
TCATGG | 1.11 |  |  | 1.07 |  | 1.05
CCACAC | 1.07 | 1.12 |  | 1.1 | 0.941 | 
CGGTTA | 1.05 |  |  | 0.904 |  | 0.953
TATGAG | 0.962 |  | 0.986 | 0.979 | 0.878 | 0.959
CTCTCC | 1.35 | 1.34 |  | 1.5 |  | 1.44

Five entries drawn at random from the list so far:
Sequence | binding signal (FLI1) | binding signal (EHF) | binding signal (SPIB) | binding signal (ELF4) | binding signal (ETV2) | binding signal (ETV3L)
CTCTCC | 1.35 | 1.34 |  | 1.5 |  | 1.44
CCCAAG | 1.09 | 0.983 | 0.924 | 1.03 | 0.971 | 
GCTAAA | 1.06 | 1.06 |  | 1.06 | 1.12 | 
CCTCAG | 1.17 |  | 1.35 | 1.3 | 1.37 | 
ACACAT | 1.34 | 1.35 |  | 1.23 |  | 1.23

Remaining list, next part.

Sequence | binding signal (FLI1) | binding signal (EHF) | binding signal (SPIB) | binding signal (ELF4) | binding signal (ETV2) | binding signal (ETV3L)
GCGTAT | 0.974 | 0.992 |  | 0.942 | 0.939 | 
GGATAC | 0.98 |  |  | 0.978 |  | 0.988
ATCAAA | 0.987 | 0.999 |  | 1.12 | 1.11 | 
AAAATG | 1.17 |  |  | 1.26 |  | 1.24
GGCTAT | 0.934 | 1.12 |  | 0.98 |  | 1.07
CAACGC | 1.04 | 1.01 | 0.966 | 1.11 | 1.1 | 
CGAACC | 1.1 | 1.19 |  | 1.26 |  | 1.15
AGATAA | 1.09 |  |  | 1.09 |  | 1.09
GTTGCG | 1 | 0.959 |  | 0.981 |  | 1.06
AGTAAA | 0.955 |  | 0.994 | 0.983 | 0.94 | 0.986
GGGAAA | 0.982 |  | 1.1 | 0.992 | 0.999 | 1.05
TCATGA | 1.12 |  | 0.957 | 1.06 | 0.957 | 
CTGAAC | 1.35 |  |  |  | 1.35 | 
ACTAGG | 1.03 |  | 0.998 | 0.998 |  | 
CGCTGC | 1.12 |  |  |  | 0.976 | 
AAACAC | 1.25 |  | 1.27 | 1.34 |  | 
GTACAA | 1.05 | 1.26 |  | 1.09 |  | 
ACTGGT | 0.981 | 0.968 |  | 1.07 |  | 
TGCCTC | 1.39 | 1.26 |  | 1.34 |  | 
CCTATA | 1.35 | 1.28 | 1.34 | 1.29 |  | 
ACTGTA | 1 | 1.11 | 0.963 | 0.996 |  | 

Reference: article PMC7862700
